The values are deposited in ChEMBL (CHEMBL3988442, “University of Dundee, Small-Polar-MMV Screening Library” (2021)).

Values are the deposited “Percent Effect”, in %.
The record does not define 0% and 100%; most values in the screen are far below 50% and negative numbers occur (in some assays of this library far below -100).
The compounds are a random part of those screened.

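Growth of Mycobacterium tuberculosis over 3 days (7H9 medium with glucose and tyloxapol); the read-out is not stated. Tested at 500 µM. Higher reads as more growth inhibition (inferred: compounds with an IC50 in retests scored well above the rest). Size under these conditions: about 18,000 compounds, about 1,400 of them at 50% or above in at least one test.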

Compound,percent effect
CCN(CC(N)=O)Cc1ccc(C)s1,28.9
CN1CCC(NC(=O)C2CCCN(S(C)(=O)=O)C2)CC1 (stereo unspecified),1.908
CNCC(C)(C)CCO,-15.12
CCC(C)(C)NC(=O)CN(C)Cc1nccn1C,9.58
Cc1cc(C(=O)N[C@H]2CC[C@H](O)CC2)cc(C)n1,-25.02
CC(=O)N1CCc2cc(C(=O)N(C)C)ccc21,1.183
COc1cccc(NC(=O)C(C)S(C)(=O)=O)c1 (stereo unspecified),4.333
CC(C)[C@H]1CN(CCC(=O)NC2CCCC2)C[C@@H]1N,12.89
COCCn1cc(C(C)N)cn1 (stereo unspecified),0.3466
O=C(C1CCC1)N1CCN(S(=O)(=O)c2cccs2)CC1,18.91
CC(Cn1cccn1)NCc1ccncc1 (stereo unspecified),9.77
CC(C)(C)OCCCN,3.515
COc1ccnc(N2CCN(C(=O)CSC)CC2)n1,41.34
CC1CS(=O)(=O)CCN1C(=O)CCCSC(C)(C)C (stereo unspecified),5.896
Cn1cc(Cn2nc(-c3ccco3)oc2=O)cn1,63.07
O=C(CNCC1CC1)Nc1ccccc1,50.25
CCN(Cc1cccc(F)c1)C1CCS(=O)(=O)C1 (stereo unspecified),37.37
O=c1ccccn1CCCNS(=O)(=O)c1cccs1,15.78
Cc1ccccc1NC(=O)c1ncccn1,0.05112
CCNc1nc2c([nH]1)c(=O)n(C)c(=O)n2C,4.776
CC(c1cccs1)N(C)C(=O)c1ccc(C(N)=O)cc1 (stereo unspecified),45.93
O=C1CCc2cc(NC3CCS(=O)(=O)CC3)ccc2N1,1.038
Cc1cc(C)nc(N2CCOCC2C(N)=O)n1 (stereo unspecified),-1.842
NC(=O)C1CCCN(C(=O)COCc2ccccc2)C1 (stereo unspecified),6.246
Cc1ccc(C(=O)NCc2c[nH]nn2)c(F)c1,30.73
Cn1cc(Br)c(=O)c(NC(=O)c2cccc(C#N)c2)c1,-11.79
Cn1cc(CCc2nc3c([nH]2)CCCNC3=O)cn1,17.36
C[S+]([O-])c1nncn1CCCOc1ccc(C#N)cc1 (stereo unspecified),19.55
NCC(=O)Nc1ccc(-n2cncn2)cc1,11.82
O=C(NCc1ccncc1)Nc1ccc2c(c1)OCO2,11.12
CSc1nc(C)c2c(c1C(N)=O)CCCC2,-8.598
CC(C)CCN1CCN(C(=O)c2nccnc2N)CC1,14.5
CC(C)(C)NC(=O)C1CCCC1,4.9
O=S(=O)(c1ccc(Br)cc1)N1CCOCC1,-6.23
COc1ccc(Br)cc1CNCC1CCS(=O)(=O)C1 (stereo unspecified),7.448
CNC(=O)C1CN(C(=O)Cc2ccc(F)cc2)CCO1 (stereo unspecified),4.469
CS(=O)(=O)NCCNC(=O)c1ccc(C(F)(F)F)cc1,12.85
CCN(CCS(=O)(=O)c1ccccc1)CC(=O)N(C)C,92.27
O=C(CCN1CCCC(O)C1)Nc1ccccc1 (stereo unspecified),7.295
CCC(O)(CN)c1ccc(Br)cc1 (stereo unspecified),36.35
CCNCC(=O)NC1CCS(=O)(=O)C1 (stereo unspecified),6.137
Cc1ccccc1C(=O)NC1CCN(C)CC1,29.6
CCc1nn(C)c(CC)c1S(=O)(=O)N1CCC(N)CC1,10.81
O=C1NCCCNC1c1ccccc1 (stereo unspecified),19.26
O=C1CC(COC(=O)c2ncccc2C(F)(F)F)CN1 (stereo unspecified),4.057
CCCOc1cccc(NCC(=O)N2CCNC2=O)c1,6.295
COc1ccc(Cn2cnc(N)n2)cc1,10.93
COc1cc(CCC(=O)Nc2nc[nH]n2)on1,-2.551
CNC(=O)[C@@H]1CC(=O)N(C)[C@H]1c1cccnc1,2.737
CC(C)(C)CNC(=O)Cc1csc(N2CCCC2=O)n1,0.8532
CCc1nc(N)nc(NCC(O)CN(C)C)c1C (stereo unspecified),7.514
c1ccc2[nH]c([C@H]3CCCN3)nc2c1,14.59
CNCCCOC(C)C,7.426
CS(=O)(=O)Cc1ccccc1Br,-4.897
COc1cccc(CN(C)C(=O)c2occc2C)n1,64.15
Cc1cc(NC(=O)Cc2ccc3c(c2)OCCO3)no1,53.28
COCCN(C)CCNC(=O)c1ccc(C)c(OC)c1,37.63
COc1ccc(OC)c(CN(C)CCN(C)C)c1,-4.455
CC1(CNC(=O)Nc2ccc(C(N)=O)c(Cl)c2)COC1,3.522
CCC[C@H]1CN(C(=O)c2ccnc(NC)c2)C[C@@H]1N,13.09
CNc1cccc(S(C)(=O)=O)c1,6.956
CCS(=O)(=O)CCNC(C)(CO)C1CCCCC1 (stereo unspecified),6.194
CNc1cccnc1N1CCCC1,63.96
CC(C)(CNc1nc2ccccc2o1)C(N)=O,31.07
Cc1cc(CN)on1,99.94
CCC(C)(C)OCC(O)CN1CCN(C)CC1 (stereo unspecified),0.1995
O=C(CN1CCCCC1)Nc1cc(Br)ccn1,5.541
O=C(NCCOCc1ccc(Cl)cc1)C1CNCCO1 (stereo unspecified),29.88
CC(O)CN(C(=O)NCCCn1ccnc1)C(C)C (stereo unspecified),-0.764
CN(Cc1ccccc1)C(=O)c1cnn(C)c1,43.28
CCCOC(=O)c1csc(NC(C)=O)n1,45.73
CC(C)NC(=O)c1nnn(-c2cccc(Br)c2)c1N,-2.211
Cc1cc(CN(C)C(=O)Cc2ccccc2F)no1,43.98
CN(C)C(=O)C(C)(N)C(F)(F)F (stereo unspecified),1.186
CN(C)C(=O)CCN1CCC(CNc2ccccn2)C1 (stereo unspecified),-10.27

Some entries from above, unchanged:

- Cc1ccc(C(=O)NCc2c[nH]nn2)c(F)c1 : 30.73%
- O=C(CNCC1CC1)Nc1ccccc1 : 50.25%
- COc1cccc(NC(=O)C(C)S(C)(=O)=O)c1 (stereo unspecified) : 4.333%
- CN(C)C(=O)C(C)(N)C(F)(F)F (stereo unspecified) : 1.186%
- CC(C)(C)CNC(=O)Cc1csc(N2CCCC2=O)n1 : 0.8532%
- O=C(CN1CCCCC1)Nc1cc(Br)ccn1 : 5.541%